Measurements reported in PubChem BioAssay AID652243 (Drosophila RNAi Screening Center, 2013).
Test: 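Knock-downs that decrease or increase androgen receptor reporter signal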 (primary screen). System: Drosophila S2R+ cells. Reagent: long dsRNA against Drosophila genes. Time to read-out: 72 h (48 h, then 24 h hormone). Treatment: synthetic androgen R1881 at 10 nM for 24 h. Detection: 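Firefly light from an androgen-responsive reporter and Renilla control light per well, raw and unnormalised, for each of two replicates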. Reading the numbers: firefly reporter light: higher = more light from androgen-responsive reporter; Renilla control light: higher = more constitutive control signal (cell number, transfection). Hit rule: 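Hit when the log firefly-to-Renilla ratio dropped or increased by a fixed fold versus the mean of GFP or LacZ controls across duplicate plates; lowering cut given as 1.5 and as 3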. Calls: active = hit: reporter lowered or raised; inactive = no hit.
The deposit covers about 24,000 reagents; below is a random part of those with a known target gene and a result. Over the whole deposit, 246 (1%) were called active. 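Plates not normalised; calls are printed but the firefly/Renilla ratio behind them is not deposited; fold cut for lowering reported inconsistently.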 The raw values are shown without normalisation. Names joined by + are all predicted targets of the reagent. Reagent sequences are not shown. The record does not give: the amount of reagent.

| Target gene | amplicon | firefly reporter light, replicate 1 | firefly reporter light, replicate 2 | Renilla control light, replicate 1 | Renilla control light, replicate 2 | outcome |
| --- | --- | --- | --- | --- | --- | --- |
| Shark (GeneID 44353) | DRSC07680 | 8.10e5 | 8.85e5 | 1.13e6 | 1.33e6 | inactive |
| Shark (GeneID 44353) | DRSC28527 | 3.34e5 | 6.97e5 | 7.86e5 | 1.25e6 | inactive |
| Shark (GeneID 44353) | DRSC37025 | – | – | – | – | inactive |
| eIF3b (GeneID 36981) | DRSC06900 | 1.51e5 | 1.14e5 | 1.21e6 | 1.21e6 | inactive |
| CG15614 (GeneID 36899) | DRSC06567 | 83269 | 70687 | 1.03e6 | 1.03e6 | inactive |
| Traf4 (GeneID 33638) | DRSC00445 | 1.35e5 | 1.14e5 | 7.79e5 | 8.17e5 | inactive |
| Traf4 (GeneID 33638) | DRSC00794 | 7.30e5 | 1.05e6 | 1.84e6 | 2.09e6 | inactive |
| CG7785 (GeneID 42158) | DRSC16311 | 92963 | 1.46e5 | 1.37e6 | 1.39e6 | inactive |
| CG34435 (GeneID 31471) | DRSC18086 | 3.15e5 | 2.74e5 | 2.63e6 | 2.12e6 | inactive |
| Obp58c (GeneID 37608) | DRSC04166 | 2.86e5 | 3.29e5 | 2.00e6 | 1.75e6 | inactive |
| CG5543 (GeneID 37768) | DRSC04511 | 7.53e5 | 5.54e5 | 1.26e6 | 9.67e5 | inactive |
| rump (GeneID 41138) | DRSC16480 | 31840 | 85605 | 3.51e5 | 8.34e5 | inactive |
| bonsai (GeneID 37587) | DRSC04453 | 3.41e5 | 3.34e5 | 2.22e6 | 1.55e6 | inactive |
| bonsai (GeneID 37587) | DRSC24153 | 6.64e5 | 6.09e5 | 8.98e5 | 7.72e5 | inactive |
| CG31296 (GeneID 318668) | DRSC13092 | 67333 | 72076 | 96659 | 1.44e5 | inactive |
| lbm (GeneID 35623) | DRSC07643 | 3.30e5 | 3.97e5 | 1.77e6 | 1.76e6 | inactive |
| Tb (GeneID 43212) | DRSC15815 | 2.40e5 | 2.32e5 | 2.11e6 | 2.10e6 | inactive |
| Tb (GeneID 43212) | DRSC23554 | 1.11e6 | 8.74e5 | 1.05e6 | 1.15e6 | inactive |
| CG14314 (GeneID 42179) | DRSC14793 | 76450 | 1.20e5 | 1.13e6 | 1.48e6 | inactive |
| CNPYb (GeneID 40084) | DRSC09845 | 26086 | 25971 | 3.44e5 | 3.13e5 | inactive |
| MESR6 (GeneID 40083) | DRSC10720 | 51086 | 79788 | 6.65e5 | 4.08e5 | inactive |
| MESR6 (GeneID 40083) | DRSC28344 | 3.98e5 | 5.91e5 | 8.68e5 | 1.41e6 | inactive |
| CG9330 (GeneID 40131) | DRSC11066 | 1.80e5 | 1.83e5 | 1.57e6 | 2.43e6 | inactive |
| CG9330 (GeneID 40131) | DRSC29449 | 3.09e5 | 3.28e5 | 7.41e5 | 7.41e5 | inactive |
| Klp31E (GeneID 34422) | DRSC03354 | 1.39e6 | 1.47e6 | 1.74e6 | 1.71e6 | inactive |
| CG3358 (GeneID 35604) | DRSC04992 | 6.24e5 | 3.59e5 | 1.64e6 | 1.37e6 | inactive |
| CG31960 (GeneID 319047) | DRSC00281 | 1.19e5 | 1.34e5 | 1.06e6 | 7.88e5 | inactive |
| CG31960 (GeneID 319047) | DRSC26274 | 4.16e5 | 4.46e5 | 8.96e5 | 8.46e5 | inactive |
| Nup35 (GeneID 32851) | DRSC19999 | 59057 | 75420 | 7.11e5 | 9.62e5 | active |
| CG34446 (GeneID 5740549) | DRSC24507 | 1.36e5 | 1.21e5 | 1.40e6 | 1.44e6 | inactive |

Continued (5 carried over from the part before).
| Target gene | amplicon | firefly reporter light, replicate 1 | firefly reporter light, replicate 2 | Renilla control light, replicate 1 | Renilla control light, replicate 2 | outcome |
| --- | --- | --- | --- | --- | --- | --- |
| CG3358 (GeneID 35604) | DRSC04992 | 6.24e5 | 3.59e5 | 1.64e6 | 1.37e6 | inactive |
| CG31960 (GeneID 319047) | DRSC00281 | 1.19e5 | 1.34e5 | 1.06e6 | 7.88e5 | inactive |
| CG31960 (GeneID 319047) | DRSC26274 | 4.16e5 | 4.46e5 | 8.96e5 | 8.46e5 | inactive |
| Nup35 (GeneID 32851) | DRSC19999 | 59057 | 75420 | 7.11e5 | 9.62e5 | active |
| CG34446 (GeneID 5740549) | DRSC24507 | 1.36e5 | 1.21e5 | 1.40e6 | 1.44e6 | inactive |
| Mdr49 (GeneID 36428) | DRSC07466 | 9.16e5 | 1.17e6 | 2.00e6 | 1.90e6 | inactive |
| Mdr49 (GeneID 36428) | DRSC24065 | 4.78e5 | 3.32e5 | 3.94e5 | 3.98e5 | inactive |
| CG4593 (GeneID 31649) | DRSC18374 | 2.12e5 | 2.72e5 | 2.22e6 | 2.52e6 | inactive |
| CG4593 (GeneID 31649) | DRSC29173 | 4.40e5 | 5.43e5 | 1.30e6 | 1.23e6 | inactive |
| CG14763 (GeneID 35757) | DRSC06497 | 4.54e5 | 3.78e5 | 2.66e6 | 2.52e6 | inactive |
| CG14763 (GeneID 35757) | DRSC25479 | 1.09e6 | 1.23e6 | 6.97e5 | 8.32e5 | inactive |
| CG31174 (GeneID 318616) | DRSC13518 | 2.00e5 | 1.56e5 | 2.06e5 | 3.04e5 | inactive |
| atk (GeneID 40266) | DRSC11418 | 1.67e5 | 2.28e5 | 5.13e5 | 5.61e5 | inactive |
| atk (GeneID 40266) | DRSC11769 | 2.80e5 | 1.41e5 | 2.21e6 | 2.06e6 | inactive |
| atk (GeneID 40266) | DRSC26412 | 2.65e5 | 2.73e5 | 8.21e5 | 7.98e5 | inactive |
| CG14277 (GeneID 34129) | DRSC02380 | 2.51e5 | 1.87e5 | 2.34e6 | 1.57e6 | inactive |
| TwdlX (GeneID 318094) | DRSC19151 | 4.19e5 | 3.69e5 | 6.09e5 | 4.69e5 | inactive |
| TwdlX (GeneID 318094) | DRSC29528 | 2.92e5 | 4.26e5 | 4.83e5 | 4.83e5 | inactive |
| GLaz (GeneID 36447) | DRSC07431 | 2.98e5 | 2.56e5 | 1.66e6 | 1.81e6 | inactive |
| lectin-21Ca (GeneID 53552) | DRSC00541 | 95599 | 64597 | 7.14e5 | 6.87e5 | inactive |
| CG11398 (GeneID 31070) | DRSC18625 | 1.07e5 | 74177 | 1.79e6 | 1.55e6 | inactive |
| comm3 (GeneID 39696) | DRSC09993 | 2.33e5 | 3.15e5 | 2.03e6 | 2.10e6 | inactive |
| comm3 (GeneID 39696) | DRSC09994 | 1.03e5 | 1.40e5 | 1.50e6 | 1.27e6 | inactive |
| comm3 (GeneID 39696) | DRSC09995 | 3.18e5 | 1.58e5 | 2.12e6 | 1.28e6 | inactive |
| asRNA:CR31084 + CG34291 | DRSC38762 | 7.98e5 | 5.85e5 | 1.43e6 | 1.00e6 | inactive |
| CG2211 (GeneID 38157) | DRSC08559 | 79204 | 84596 | 6.08e5 | 6.93e5 | inactive |
| CG34326 (retired record) (GeneID 5740223) | DRSC38794 | 9.62e5 | 8.04e5 | 1.96e6 | 1.78e6 | inactive |
| Dpm1 (GeneID 35240) | DRSC02018 | 1.04e5 | 87351 | 8.02e5 | 1.58e6 | inactive |
| CG9592 (GeneID 39585) | DRSC11078 | 2.82e5 | 2.01e5 | 2.36e6 | 1.74e6 | inactive |
| hang (GeneID 32613) | DRSC23216 | 4.84e5 | 4.49e5 | 3.78e5 | 2.59e5 | inactive |
| hang (GeneID 32613) | DRSC29322 | 7.87e5 | 8.58e5 | 1.04e6 | 1.04e6 | inactive |
| Myo31DF (GeneID 34445) | DRSC03376 | 9.74e5 | 9.00e5 | 2.12e6 | 2.32e6 | inactive |
| Myo31DF (GeneID 34445) | DRSC22702 | 7.68e5 | 7.53e5 | 1.09e6 | 1.02e6 | inactive |
| Myo31DF (GeneID 34445) | DRSC25363 | 3.83e5 | 3.67e5 | 7.05e5 | 5.96e5 | inactive |
